Measurements reported in PubChem BioAssay AID1224830 (NIAID, 2016)
In all, the deposit lists about 18,000 reagents; this is an unselected part. About 2,900 of them (16%) count as active. 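Calls are made per well; low scores hint the gene aids the LPS response, high scores that it dampens it.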 Repeated entries: four replicate wells of each siRNA pool. Reagent sequences are not shown.

Assay: 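Regulators of TLR4 signalling towards TNF-alpha in macrophage-like cells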 (primary screen)
Cells: human THP-1 monocytic leukaemia cells, TNF dual-luciferase reporter clone, PMA-differentiated to macrophage-like cells
Reagents: siRNA pool against human genes, 50 nM
Duration: LPS for 4 h, given about 3 days after siRNA transfection
Treatment: bacterial LPS (TLR4 ligand), 10 ng/ml
Read-out: 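Ratio of firefly to renilla light, scaled to the plate median and expressed as a robust z-score per replicate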
Scale: TNF reporter robust z-score: higher = stronger TNF reporter response to LPS
Active means: 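Each well counts as active if its z-score is over 2.8 or under -1.5; controls are left without a call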

Knock-down of DNAH5 (dynein axonemal heavy chain 5) resulted in: TNF reporter robust z-score -0.24; inactive.
After knock-down of DNAH5 (dynein axonemal heavy chain 5), the record shows TNF reporter robust z-score 1.78; inactive.
For DNAH5 (dynein axonemal heavy chain 5) the deposit lists TNF reporter robust z-score 0.22; inactive.
Against DNAH5 (dynein axonemal heavy chain 5), the values are TNF reporter robust z-score 0.36; inactive.
Depletion of ASF1A (anti-silencing function 1A histone chaperone) resulted in: TNF reporter robust z-score -0.8; inactive.
ASF1A (anti-silencing function 1A histone chaperone) scored TNF reporter robust z-score -1.01; inactive.
ASF1A (anti-silencing function 1A histone chaperone) scored TNF reporter robust z-score -0.85; inactive.
Silencing of ASF1A (anti-silencing function 1A histone chaperone) came out at: TNF reporter robust z-score 0.21; inactive.
After knock-down of DDX42 (DEAD-box helicase 42), the screen gave TNF reporter robust z-score -0.48; inactive.
With knock-down of DDX42 (DEAD-box helicase 42) the results were TNF reporter robust z-score -0.24; inactive.
Against DDX42 (DEAD-box helicase 42), the values are TNF reporter robust z-score 0.14; inactive.
DDX42 (DEAD-box helicase 42) scored TNF reporter robust z-score 0.39; inactive.
Depletion of RBM12B (RNA binding motif protein 12B) came out at: TNF reporter robust z-score -0.59; inactive.
For RBM12B (RNA binding motif protein 12B), the entry reads TNF reporter robust z-score 0.43; inactive.
Silencing of RBM12B (RNA binding motif protein 12B) came out at: TNF reporter robust z-score -0.41; inactive.
After knock-down of RBM12B (RNA binding motif protein 12B), the screen gave TNF reporter robust z-score 1.07; inactive.
SNRNP40 (small nuclear ribonucleoprotein U5 subunit 40) gave TNF reporter robust z-score -0.02; inactive.
After knock-down of SNRNP40 (small nuclear ribonucleoprotein U5 subunit 40), the screen gave TNF reporter robust z-score 0.85; inactive.
With knock-down of SNRNP40 (small nuclear ribonucleoprotein U5 subunit 40), the record shows TNF reporter robust z-score -0.73; inactive.
SNRNP40 (small nuclear ribonucleoprotein U5 subunit 40) gave TNF reporter robust z-score 1.03; inactive.

2 entries from above in another layout.
DNAH5 (dynein axonemal heavy chain 5)
- TNF reporter robust z-score: 1.78
- Outcome: inactive

DNAH5 (dynein axonemal heavy chain 5)
- TNF reporter robust z-score: 0.22
- Outcome: inactive
